PubChem BioAssay AID493027 (The Scripps Research Institute Molecular Screening Center, 2011)
Hit rate of the full screen: of about 2,000 compounds, about 45 (2%) were called active.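 Rule for the calls: active = inhibition above the screen-wide mean inhibition plus 3 SD (cut at about 44% in these data); inactive = the rest.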 The list shows a part of the results.

Amino acid sequences for entries named in this document (tags omitted). A change or cut given only in a name is not applied to a line headed by its entry.
UniProt O60240: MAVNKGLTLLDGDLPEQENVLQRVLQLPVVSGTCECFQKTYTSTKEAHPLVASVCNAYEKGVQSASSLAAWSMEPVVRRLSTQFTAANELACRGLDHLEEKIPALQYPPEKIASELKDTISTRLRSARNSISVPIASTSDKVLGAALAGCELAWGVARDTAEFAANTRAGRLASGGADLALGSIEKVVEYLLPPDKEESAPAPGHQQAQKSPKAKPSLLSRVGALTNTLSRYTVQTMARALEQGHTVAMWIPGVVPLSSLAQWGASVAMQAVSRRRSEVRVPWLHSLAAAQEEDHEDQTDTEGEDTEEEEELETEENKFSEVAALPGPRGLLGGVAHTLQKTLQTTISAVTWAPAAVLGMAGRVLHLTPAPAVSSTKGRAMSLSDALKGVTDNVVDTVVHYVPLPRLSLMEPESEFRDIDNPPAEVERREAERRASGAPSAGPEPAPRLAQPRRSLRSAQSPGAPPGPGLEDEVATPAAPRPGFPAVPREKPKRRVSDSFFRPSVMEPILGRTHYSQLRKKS
UniProt Q8WTS1: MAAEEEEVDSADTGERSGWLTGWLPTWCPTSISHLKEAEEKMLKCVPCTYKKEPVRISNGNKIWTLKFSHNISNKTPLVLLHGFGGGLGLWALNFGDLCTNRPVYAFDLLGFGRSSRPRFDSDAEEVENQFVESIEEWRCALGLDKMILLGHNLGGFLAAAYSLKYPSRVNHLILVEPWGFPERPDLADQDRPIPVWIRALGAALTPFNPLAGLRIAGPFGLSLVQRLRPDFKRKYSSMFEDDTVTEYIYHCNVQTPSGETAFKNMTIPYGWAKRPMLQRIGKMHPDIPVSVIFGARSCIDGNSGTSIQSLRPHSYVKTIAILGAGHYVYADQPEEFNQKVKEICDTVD

Each compound was assayed against Perilipin-1 (Homo sapiens) + 1-acylglycerol-3-phosphate O-acyltransferase ABHD5 (Homo sapiens) (UniProt O60240+Q8WTS1) (assay: ABHD5-PLIN1 interaction inhibitors, pilot screen, cell lysate, split luciferase complementation, luminescence, NIH validation set (AID 493027;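 note: 0% = DMSO wells with the 100% control not disclosed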)). Conditions: split G. princeps luciferase complementation, 4 h; at 7.9 µM, active compounds read high.

| SMILES | inhibition |
| --- | --- |
| CC(C)(C)C(=O)NC(=S)Nc1sc2c(c1C(N)=O)CCC2 | inactive: 1.49% |
| COC(=O)C1=C(C)N(Cc2ccco2)C(=O)/C1=C\c1ccc([N+](=O)[O-])cc1 | active: 86% |
| Cc1cccc2c(C(=O)O)cc(-c3cccnc3)nc12 | inactive: 3.44% |
| O=C(O)CCCCCNC(=O)Nc1ccc2c(c1)OCCO2 | inactive: 1.82% |
| O=C(CC(NC(=O)OCc1ccccc1)C(=O)O)OCc1ccccc1 (stereo not drawn) | inactive: -0.68% |
| COc1ccc(C2NC(=O)c3ccccc3O2)c(OC)c1OC (stereo not drawn) | inactive: 1.11% |
| O=C1CCCN1C(=O)CCC(=O)N1CCCC1=O | inactive: 3.93% |
| CCN(CC)C(=O)N1CCN(C)CC1 | inactive: 41.1% |
| CC(C)COc1ccc(Cc2cnc(N)nc2N)cc1 | inactive: -3.45% |
| Nc1ccc(N=Nc2ccccc2)c(N)n1 | inactive: 3.21% |
| CC12CCC(C(=O)N(CCC#N)CCC#N)(CC1=O)C2(C)C (stereo not drawn) | inactive: -7.25% |
| CCN(CCCc1ccccc1)CCCc1ccccc1 | inactive: 33.9% |
| COc1ccc(C2c3c(n[nH]c3C)CC(C)(O)C2C(C)=O)cc1OC (stereo not drawn) | inactive: -4.9% |
| CC[C@]1(O)C[C@@H]2CN(CCc3c([nH]c4ccccc34)[C@@](C(=O)OC)(c3cc4c(cc3OC)N(C)[C@H]3[C@@](O)(C(=O)OC)[C@H](OC(C)=O)[C@]5(CC)C=CCN6CC[C@]43[C@@H]65)C2)C1 | inactive: -0.7% |
| CN(C)CCOC(c1ccccc1)c1ccccc1 (tested in a mixture with another compound) | inactive: -0.63% |
| O=C(O)CCCCCCNC(=O)c1cncc(O)c1 | inactive: -10.4% |
| CC1(C)C(=O)OC(C(=O)c2ccc(Cl)cc2)C(C)(C)C1=O (stereo not drawn) | inactive: -6.07% |
| CN(C)CCC(c1ccccc1)c1ccccn1 (stereo not drawn) | inactive: -3.32% |
| Nc1ccc2nc(Cc3ccccc3)[nH]c2c1 | inactive: -5.86% |
| N/C(=N\OC(=O)/C=C/c1ccccc1)c1ccc(Br)cc1 | inactive: -13% |
| Cc1ccccc1OCC(O)CN1CCN(C)CC1 (stereo not drawn) | inactive: -6.82% |
| CC(=O)Nc1ccccc1C(=O)C(=O)Nc1ccccc1 | inactive: -1.79% |
| C=CCc1ccccc1OCC(O)CNC(C)C (stereo not drawn) | inactive: 1.47% |
| O=C(Cc1ccccc1)NNC(=O)Cc1ccccc1 | inactive: -0.42% |
| CCCCOc1ccc(CC(=O)NO)cc1 | inactive: 33.5% |

| SMILES | inhibition |
| --- | --- |
| CC(=O)OC(C)C[N+](C)(C)C (stereo not drawn) | inactive: -14.2% |
| CCOCCCNCc1cn(-c2ccc(F)cc2F)nc1-c1ccccc1C | inactive: -4% |
| CCOC(=O)c1cccc(P(C)(C)=O)c1 | inactive: -5.57% |
| C=CC1=C(C(=O)O)N2C(=O)C(NC(=O)Cc3ccccc3)C2SC1 (stereo not drawn) | inactive: 5.17% |
| CC1(C)Cc2ccccc2-c2nc(-c3ccccc3)oc(=O)c21 | inactive: -16.1% |
| COc1c(C=O)c(CCN(C)C(=O)c2ccc(F)cc2)cc2c1OCO2 | inactive: 1.06% |
| COc1cc(C2C(C(=O)c3ccc(C)o3)=C(O)C(=O)N2Cc2cccnc2)ccc1O (stereo not drawn) | inactive: -11.2% |
| CC(=O)Oc1c2occc2cc2ccc(=O)oc12 | inactive: -1.37% |
| O=c1nc2n(c3c1oc1ccccc13)Cc1ccccc1-2 | inactive: -1.93% |
| COc1ccc(CCNC(=S)NC(=O)/C=C/c2ccc(C)cc2)cc1OC | inactive: 8.05% |
| COc1ccccc1C(CC(=O)Nc1ccccc1C)c1ccc(OC(C)C)cc1 (stereo not drawn) | inactive: 0.34% |
| OCCC1CN(Cc2ccccc2-c2ccco2)CCN1C1CCCC1 (stereo not drawn) | inactive: -3.88% |
| Cc1ccc2c(c1)C(O)(c1c(C)[nH]c3ccccc13)C(=O)N2 (stereo not drawn) | inactive: -5.54% |
| Cc1c(OC(=O)CNC(=O)OC(C)(C)C)ccc2c3c(c(=O)oc12)CCC3 | inactive: 13.2% |
| CCCCC[C@H](O)/C=C/[C@@H]1[C@@H](CCCCCCC(=O)O)[C@@H](O)C[C@H]1O | inactive: 7.47% |
| O=C(/C=C/Sc1ccccc1)c1ccccc1 | active: 81.5% |
| C=CCC1(O)C(=O)N2C(=C1C(=O)N1CCOCC1)c1ccccc1CC2(C)C (stereo not drawn) | inactive: 1.14% |
| COC(=O)CN1CC(=O)N(c2ccccc2)C1=S | inactive: -5.19% |
| NC(=O)c1cccnc1 | inactive: -4.63% |
| CO/N=C(\C(=O)N[C@@H]1C(=O)N2C(C(=O)O)=C(COC(C)=O)CS[C@H]12)c1csc(N)n1 (stereo in doubt) | inactive: 1.58% |
| O=C(O)C1CSC(c2ccc3c(c2)OCO3)N1 (stereo not drawn) | inactive: -0.99% |
| CC12CCCCN1CCCc1c2[nH]c2ccccc12 (stereo not drawn) | inactive: 3.38% |
| Cn1c(=O)c2c(ncn2CC(O)CO)n(C)c1=O (stereo not drawn) | inactive: -12.2% |
| COc1cccc(N2C(=O)CC(c3c[nH]c4ccccc34)C2=O)c1 (stereo not drawn) | inactive: 0.77% |
| N=C1C(c2ccccc2)=C(O)CN1CCCO | inactive: -11.9% |

| SMILES | inhibition |
| --- | --- |
| COc1ccccc1NC(=O)N1CCc2[nH]c3ccc(Cl)cc3c2C1 | inactive: 24.1% |
| O=C1Nc2ccc3sc4ccccc4c3c2C1=O | inactive: 1.27% |
| CCC(C)NCCOc1ccccc1C (stereo not drawn) | inactive: -6.76% |
| COc1cc2c(cc1O)CCN(C(=O)c1ccco1)C2C (stereo not drawn) | inactive: -3.54% |
| COc1ccc(/C=C2\CC/C(=C\c3ccc(OC)c(OC)c3)C2=O)cc1OC | active: 59.1% |
| CC(C)c1cc(=O)oc2c3c4c(cc12)CCCN4CCC3 | inactive: -2.15% |
| CSCC[C@H](NC(=O)OC(C)(C)C)C(=O)N1CCC(C(=O)N[C@@H](C)C(=O)O)CC1 | inactive: -2.64% |
| Cc1nc2c(c3c1[nH]c1ccccc13)C(=O)CC(C)(C)C2 | inactive: -1.29% |
| CN(C)c1cc(NC(=O)CN2CCOCC2)c2ccccc2n1 | inactive: -3.8% |
| CC(C)(C)OC(=O)COc1cc(OCC(=O)OC(C)(C)C)c2c(=O)cc(-c3ccccc3)oc2c1 | inactive: 26.2% |
| CC(C)=CCCC1=CCC2C(=O)NNC(=O)C2C1 (stereo not drawn) | inactive: 4.31% |
| COc1ccc(C(=O)Nc2nc3ccccc3c(=O)[nH]2)cc1 | inactive: -4.92% |
| O=C(COc1cc(O)c2c(=O)c3ccccc3oc2c1)OCc1ccccc1 | inactive: -1.69% |
| Cc1ccc(C2=NOC(=O)/C2=C\C=C\c2ccccc2)cc1 | active: 95.6% |
| Cn1cc(CN2CCC(C(=O)N3CCCCC3)CC2)c(-c2ccccc2F)n1 | inactive: -6.43% |
| CCOc1ccc(CC2CCC(=O)NC2=O)cc1 (stereo not drawn) | inactive: 3.55% |
| COc1ccc(NC(=O)C2OC3OC(C)(C)OC3C3OC(C)(C)OC23)cc1 (stereo not drawn) | inactive: 0.39% |
| CC(=O)Oc1ccc(C(=O)O)cc1OC(C)=O | inactive: 2.2% |
| CCOC(=O)C1=C(C)N[C@@]2(O)c3ccccc3C(=O)[C@@]12O | inactive: -36.6% |
| O=c1c2ccccc2nc2n1CCCN2 | inactive: -2.95% |
| O=C(O)c1cc2cc(F)ccc2[nH]1 | inactive: 0.61% |
| COc1ccc(C(=O)Nc2ccccc2C(=O)NC(Cc2c[nH]c3ccccc23)C(=O)O)cc1 (stereo not drawn) | inactive: -1.25% |
| Cc1cccc(N(C)C(=S)Oc2ccc3ccccc3c2)c1 | inactive: -11.3% |
| CCCCc1oc2ccccc2c1C(=O)c1cc(I)c(OCCN(CC)CC)c(I)c1 | inactive: -6.98% |
| O=C(O)c1cccnc1 | inactive: -5.93% |

| SMILES | inhibition |
| --- | --- |
| COCCCN1C(=O)/C(=C\c2cccs2)C(C(=O)OC)=C1C | inactive: 3.99% |
| CN1C(=O)NC(c2ccc(O)cc2)C2=C1CN(c1cccc3ccccc13)C2=O (stereo not drawn) | inactive: -12.2% |
| Cc1ccccc1N1C(N)=NC(N)=NC1(C)C | inactive: -3.58% |
| CC12CCC(C(=O)NCc3ccc4c(c3)OCO4)(CC1=O)C2(C)C (stereo not drawn) | inactive: -2.29% |
| CC(=O)Nc1ccc(CN2CCN(C3CCCCC3)C(CCO)C2)cc1 (stereo not drawn) | inactive: -3.02% |
| CC1(C)O[C@@H]2C[C@H]3[C@@H]4C[C@H](F)C5=CC(=O)CC[C@]5(C)[C@H]4[C@@H](O)C[C@]3(C)[C@]2(C(=O)CO)O1 | inactive: -12.2% |
| COc1ccccc1OS(=O)(=O)c1ccc(NC(C)=O)cc1 | inactive: -6.1% |
| CC12CCC(C(=O)N3CCCCC3)([C@H](Br)C1=O)C2(C)C (stereo partly drawn) | inactive: -2.39% |
| COc1ccc(C2C3C(C)=NN=C3CC(C)(O)C2C(C)=O)cc1 (stereo not drawn) | inactive: -2.63% |
| COc1cccc(OCc2nnc(-c3cccs3)o2)c1 | inactive: 4.79% |
| NNC(=O)c1ccncc1 | inactive: -1.64% |
| COc1cc(NC(=S)NC(=O)c2cccs2)ccc1NC(=O)C(C)C | inactive: -1.49% |
| COc1ccc(OC)c(C(=O)c2coc3ccc(O)cc23)c1 | inactive: 0.23% |
| C[C@]12CC[C@@H]3c4ccc(O)cc4C(=O)C[C@H]3[C@@H]1CC[C@@H]2O | inactive: 15.1% |
| CC(=O)C1=C(O)C(=O)OC1c1ccc(C)cc1 (stereo not drawn) | inactive: -3.16% |
| Cc1c(CCOC(=O)CC23CC4CC(CC(C)(C4)C2)C3)sc[n+]1Cc1ccc([N+](=O)[O-])cc1 | inactive: 6.43% |
| CC(=O)OCC(=O)[C@@]1(O)CC[C@H]2[C@@H]3CCC4=CC(=O)C=C[C@]4(C)[C@H]3[C@@H](O)C[C@@]21C | inactive: 2.14% |
| COC(=O)c1ccc(NC(=O)c2ccccc2SC)cc1 | inactive: -0.04% |
| COc1ccc(/C=C(/C#N)c2cccnc2)cc1OC | inactive: -0.93% |
| C[C@H](CS)C(=O)N1CCC[C@H]1C(=O)O | inactive: -7.65% |
| COc1cccc(N2CC34C=CC(O3)C(C(=O)O)C4C2=O)c1 (stereo not drawn) | inactive: -6.88% |
| CC(=O)c1cn(C)c(=O)[nH]c1=O | inactive: -0.12% |
| CC1=CC2(O)OCCN(CCO)C2=CC1=O (stereo not drawn) | inactive: -7.85% |

4 consecutive compounds from above, for reference:

| SMILES | inhibition |
| --- | --- |
| CC(=O)OCC(=O)[C@@]1(O)CC[C@H]2[C@@H]3CCC4=CC(=O)C=C[C@]4(C)[C@H]3[C@@H](O)C[C@@]21C | inactive: 2.14% |
| COC(=O)c1ccc(NC(=O)c2ccccc2SC)cc1 | inactive: -0.04% |
| COc1ccc(/C=C(/C#N)c2cccnc2)cc1OC | inactive: -0.93% |
| C[C@H](CS)C(=O)N1CCC[C@H]1C(=O)O | inactive: -7.65% |
